According to PubChem BioAssay AID212 (DTP/NCI, 2004):
Inconclusive results are not listed.

System: BDF1 mice, colon carcinoma 38 sc, T/C %
Assay: NCI In Vivo Anticancer Drug Screen. Data for tumor model Colon Carcinoma 38 (subcutaneous) in B6D2F1 (BDF1) mice
Conditions: endpoint: median tumor weight (est.), schedule: Q07DX003 (ip), vehicle: saline, higher = larger tumour
Experimental: The antitumor activity of compounds was measured in mice bearing transplantable tumors. Survival or tumor size were measured and the results are expressed as the measurement made in the treated group (T) divided by the measurement made in the vehicle treated control group (C). The tumor model used in this assay is Colon Carcinoma 38 (subcutaneous) in B6D2F1 (BDF1) mice

For `COc1cc2c(c(OC)c1OC)-c1ccc(OC)c(=O)cc1[C@@H](N)CC2`, the T/C (dose: 2.5 mg/kg/injection) was 102 % of control, the T/C (dose: 5.0 mg/kg/injection) was 112 % of control and the T/C (dose: 10.0 mg/kg/injection) was 56 % of control. The T/C (dose: 20.0 mg/kg/injection) was 22 % of control, the T/C (dose: 40.0 mg/kg/injection) was 17 % of control and the T/C (dose: 80.0 mg/kg/injection) was 17 % of control.
